Data as given in PubChem BioAssay AID1224826 (NIAID, 2016)

- Aim: 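Genes that change LPS-induced Tnf promoter activity in mouse macrophages when knocked down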 (primary screen)
- Cell system: RAW264.7 G9 macrophages from mouse bearing reporters for p65 (GFP) and the Tnf promoter (mCherry)
- Knock-down reagent: siRNA pool against mouse genes, 100 nM
- Timing: 16 h of LPS stimulation, after 2 days of siRNA transfection
- Challenge: bacterial lipopolysaccharide (Salmonella minnesota R595), 10 ng/ml
- Measured: 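Nuclear mCherry signal of the Tnf promoter reporter measured by imaging after background removal, scaled to each plate median and turned into robust z-scores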
- Scale: Tnf reporter robust z-score: higher = stronger Tnf promoter reporter signal after LPS; Tnf reporter intensity: higher = stronger Tnf promoter reporter signal
- Rule for the call: 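a well counts as active at a score of -1.3 or below (Tlr4 knock-down control median) or above 3 (raised signal); controls and wells holding fewer than 50 cells are excluded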
- Calls: active = Tnf reporter clearly lowered or raised; inactive = no clear change in Tnf reporter
The deposit covers about 17,000 reagents; this is a random part of them. About 1,110 of them (6.6%) were called active. 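Active means lowered or raised reporter signal; replicate intensities are raw and not normalised per plate.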 Reagents against one gene are numbered here.

no.	gene symbol	pool no.	Tnf reporter robust z-score	fewer than 50 cells in well	Tnf reporter intensity, replicate 1	Tnf reporter intensity, replicate 2	call
1	Rpl37a (ribosomal protein L37a)	1	-1.15	enough cells in well	217	106	inactive
2	Mrgprf (MAS-related GPR, member F)	1	3.43	enough cells in well	471	223	active
3	Lilra6	1	0.42	enough cells in well	153	95.9	inactive
4	Cmklr2 (chemerin chemokine-like receptor 2)	1	-0.6	enough cells in well	150	274	inactive
5	Nr1d1 (nuclear receptor subfamily 1, group D, member 1)	1	-1.25	enough cells in well	157	91.9	inactive
6	Agfg2 (ArfGAP with FG repeats 2)	1	-0.36	enough cells in well	268	109	inactive
7	Hsd17b1 (hydroxysteroid (17-beta) dehydrogenase 1)	1	0.09	enough cells in well	261	180	inactive
8	Bcl11a (BCL11 transcription factor A)	1	1.18	enough cells in well	200	231	inactive
9	Neurog2 (neurogenin 2)	1	0.67	enough cells in well	167	192	inactive
10	Arid5b (AT-rich interaction domain 5B)	1	-0.7	enough cells in well	149	119	inactive
11	Klhl25 (kelch-like 25)	1	0.35	enough cells in well	231	231	inactive
12	Bicc1 (BicC family RNA binding protein 1)	1	1.62	enough cells in well	185	233	inactive
13	Gm9734 (predicted gene 9734)	1	-0.03	enough cells in well	171	53.4	inactive
14	Grwd1 (glutamate-rich WD repeat containing 1)	1	1.8	enough cells in well	359	288	inactive
15	Tha1 (threonine aldolase 1)	1	0.5	enough cells in well	306	90.1	inactive
16	Kif5a (kinesin family member 5A)	1	-0.29	enough cells in well	199	148	inactive
17	Krcc1 (lysine-rich coiled-coil 1)	1	0.17	enough cells in well	171	142	inactive
18	Mmp12 (matrix metallopeptidase 12)	1	0.02	enough cells in well	259	213	inactive
19	Cyp26b1 (cytochrome P450, family 26, subfamily b, polypeptide 1)	1	-0.51	enough cells in well	163	135	inactive
20	Dynlt2a1 (dynein light chain Tctex-type 2A1)	1	0.79	enough cells in well	137	128	inactive

Sorted by “Tnf reporter intensity, replicate 1” (low to high): 6 of the entries above
gene symbol	pool no.	Tnf reporter robust z-score	fewer than 50 cells in well	Tnf reporter intensity, replicate 1	Tnf reporter intensity, replicate 2	call
Cyp26b1 (cytochrome P450, family 26, subfamily b, polypeptide 1)	1	-0.51	enough cells in well	163	135	inactive
Krcc1 (lysine-rich coiled-coil 1)	1	0.17	enough cells in well	171	142	inactive
Kif5a (kinesin family member 5A)	1	-0.29	enough cells in well	199	148	inactive
Mmp12 (matrix metallopeptidase 12)	1	0.02	enough cells in well	259	213	inactive
Tha1 (threonine aldolase 1)	1	0.5	enough cells in well	306	90.1	inactive
Grwd1 (glutamate-rich WD repeat containing 1)	1	1.8	enough cells in well	359	288	inactive

Next records follow:
no.	gene symbol	pool no.	Tnf reporter robust z-score	fewer than 50 cells in well	Tnf reporter intensity, replicate 1	Tnf reporter intensity, replicate 2	call
21	Zhx2 (zinc fingers and homeoboxes 2)	1	-1.42	enough cells in well	117	122	active
22	Boll (boule homolog, RNA binding protein)	1	-1.35	enough cells in well	8.7	85.4	active
23	Magea5 (MAGE family member A5)	1	-0.47	enough cells in well	191	97.6	inactive
24	Phc3 (polyhomeotic 3)	1	0.14	enough cells in well	135	158	inactive
25	Mettl15 (methyltransferase like 15)	1	-1.41	enough cells in well	153	47.8	active
26	Cdk2ap1 (cyclin dependent kinase 2 associated protein 1)	1	0.33	enough cells in well	290	215	inactive
27	Btbd1 (BTB domain containing 1)	1	-0.01	enough cells in well	114	162	inactive
28	Rab43 (RAB43, member RAS oncogene family)	1		fewer than 50 cells per well; well left out of calls	61	68	inactive
29	Cd209a (CD209a antigen)	1	-1.08	enough cells in well	93.2	127	inactive
30	Col4a4 (collagen, type IV, alpha 4)	1	-1.38	enough cells in well	152	91.2	active
31	Col4a4 (collagen, type IV, alpha 4)	2		fewer than 50 cells per well; well left out of calls	82.7	72.3	inactive
32	D630044L22Rik (RIKEN cDNA gene D630044L22 gene)	1	-1.47	enough cells in well	69.2	78.6	active
33	Slc36a1	1		fewer than 50 cells per well; well left out of calls	19.1	0.35	inactive
34	Usp2 (ubiquitin specific peptidase 2)	1	0.16	enough cells in well	239	247	inactive
35	Ankrd22 (ankyrin repeat domain 22)	1	0.34	enough cells in well	243	196	inactive
36	Cd209d (CD209d antigen)	1	-0.19	enough cells in well	139	186	inactive
37	Mrpl9 (mitochondrial ribosomal protein L9)	1	0.86	enough cells in well	172	203	inactive
38	Cimap2 (ciliary microtubule associated protein 2)	1	0.14	enough cells in well	206	148	inactive
39	Gja10 (gap junction protein, alpha 10)	1	-0.37	enough cells in well	215	121	inactive
40	Dimt1 (DIM1 rRNA methyltransferase and ribosome maturation factor)	1	-0.22	enough cells in well	267	64.5	inactive
